{"source": "the supplement of paper PMC7580552", "note": "Structures can show the parent of a compound that is named as a salt. The list shows a part of the results. Part of the spread comes from offsets between plates or batches.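 The strain is a K-12 laboratory model grown without shaking in 96-well plates, and biofilm is the crystal violet stain retained on the wells, read as absorbance. Drugs were picked as candidate specific biofilm blockers when they cut staining strongly but slowed free-floating growth by less than 70%.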", "data": [{"system": "Escherichia coli W3110", "test": "biofilm formation (crystal violet staining) relative to untreated control; higher = more biofilm", "settings": "10 µM; 20-24 h; 30 °C; TB", "units": {"biofilm formation": "%"}, "values": [{"smiles": "CC(C)/N=c1\\cc2n(-c3ccc(Cl)cc3)c3ccccc3nc-2cc1Nc1ccc(Cl)cc1", "note": "[Clofazimine]", "biofilm formation": 49}, {"smiles": "O=C1Cc2cc(CCN3CCN(c4nsc5ccccc45)CC3)c(Cl)cc2N1", "note": "[Ziprasidone Hydrochloride]", "biofilm formation": 108}, {"smiles": "CCN[C@H]1C[C@H](C)S(=O)(=O)c2sc(S(N)(=O)=O)cc21", "note": "[Dorzolamide hydrochloride]", "biofilm formation": 93}, {"smiles": "O=c1cc(-c2ccc(O)c(O)c2)oc2cc(O)cc(O)c12", "note": "[Luteolin]", "biofilm formation": 75}, {"smiles": "CC(C)(C(=O)c1cccnc1)c1cccnc1", "note": "[Metyrapone]", "biofilm formation": 54}, {"smiles": "Cc1cc(=O)n(-c2ccccc2)n1C", "note": "[Antipyrine]", "biofilm formation": 70}, {"smiles": "Clc1ccc(COC(Cn2ccnc2)c2ccc(Cl)cc2Cl)c(Cl)c1", "note": "(stereo not drawn) [Miconazole]", "biofilm formation": 46}, {"smiles": "NC12CC3CC(CC(C3)C1)C2", "note": "[Adamantamine fumarate]", "biofilm formation": 86}, {"smiles": "Cc1ccc(-c2ncc(Cl)cc2-c2ccc(S(C)(=O)=O)cc2)cn1", "note": "[Etoricoxib]", "biofilm formation": 100}, {"smiles": "CC1CCc2c(N3CCC(O)CC3)c(F)cc3c(=O)c(C(=O)O)cn1c23", "note": "(stereo not drawn) [Nadifloxacin]", "biofilm formation": 26}, {"smiles": "C[C@@H]1NC(=O)NC1=O", "note": "[Methylhydantoin-5-(L)]", "biofilm formation": 72}, {"smiles": "CN1CCN(C2=Nc3cc(Cl)ccc3Nc3ccccc32)CC1", "note": "[Clozapine]", "biofilm formation": 83}, {"smiles": "CC(Oc1ccccc1)C(=O)N[C@@H]1C(=O)N2[C@@H]1SC(C)(C)[C@@H]2C(=O)O", "note": "(stereo partly drawn) [Phenethicillin potassium salt]", "biofilm formation": 91}, {"smiles": "COc1ccc(C(=O)NCc2ccc(OCCN(C)C)cc2)cc1OC", "note": "[Itopride]", "biofilm formation": 97}, {"smiles": "N[C@@H](C(=O)N[C@@H]1C(=O)N2C(C(=O)O)=C(Cl)CS[C@H]12)c1ccccc1", "note": "[Cefaclor hydrate]", "biofilm formation": 59}, {"smiles": "O=C1c2ccccc2S(=O)(=O)N1CCCCN1CCN(c2ncccn2)CC1", "note": "[Ipsapirone]", "biofilm formation": 74}, {"smiles": "Cn1c([N+](=O)[O-])cnc1COC(N)=O", "note": "[Ronidazole]", "biofilm formation": 100}, {"smiles": "CN(C)[C@@H]1C(O)=C(C(N)=O)C(=O)[C@@]2(O)C(O)=C3C(=O)c4c(O)ccc(Cl)c4[C@@H](O)[C@H]3C[C@@H]12", "note": "[Demeclocycline hydrochloride]", "biofilm formation": 15}, {"smiles": "COc1ccc(C[C@@H]2c3cc(OC)c(OC)cc3CC[N@+]2(C)CCC(=O)OCCCCCOC(=O)CC[N@@+]2(C)CCc3cc(OC)c(OC)cc3[C@H]2Cc2ccc(OC)c(OC)c2)cc1OC", "note": "[Cisatracurium besylate]", "biofilm formation": 99}, {"smiles": "Nc1cc(-c2ccncc2)c[nH]c1=O", "note": "[Amrinone]", "biofilm formation": 103}, {"smiles": "CC(N)C12CC3CC(CC(C3)C1)C2", "note": "(stereo not drawn) [Rimantadine Hydrochloride]", "biofilm formation": 62}, {"smiles": "CN(CCOc1ccc(CC2SC(=O)NC2=O)cc1)c1ccccn1", "note": "(stereo not drawn) [Rosiglitazone Hydrochloride]", "biofilm formation": 101}, {"smiles": "CCC(=O)OCC(=O)[C@@]1(OC(=O)CC)[C@H](C)C[C@H]2[C@H]3[C@H]([C@@H](O)C[C@@]21C)[C@@]1(C)C=CC(=O)C=C1C[C@H]3Cl", "note": "[Alclometasone dipropionate]", "biofilm formation": 92}, {"smiles": "N=C(N)N/N=C/c1c(Cl)cccc1Cl", "note": "[Guanabenz acetate]", "biofilm formation": 48}, {"smiles": "OC(CCN1CCCCC1)(c1ccccc1)C1CCCCC1", "note": "(stereo not drawn) [Trihexyphenidyl-D,L Hydrochloride]", "biofilm formation": 72}, {"smiles": "Brc1c(NC2=NCCN2)ccc2nccnc12", "note": "[Brimonidine L-Tartrate]", "biofilm formation": 102}, {"smiles": "CN(C)CCOC(=O)COc1ccc(Cl)cc1", "note": "[Meclofenoxate hydrochloride]", "biofilm formation": 66}, {"smiles": "CC(=O)Nc1ccc(O)cc1", "note": "[Acetaminophen]", "biofilm formation": 81}, {"smiles": "COc1ccc2[nH]c([S+]([O-])Cc3ncc(C)c(OC)c3C)nc2c1", "note": "(stereo not drawn) [Omeprazole]", "biofilm formation": 67}, {"smiles": "Cc1cc(-n2c(=O)[nH]c(=O)n(C)c2=O)ccc1Oc1ccc(SC(F)(F)F)cc1", "note": "[Toltrazuril]", "biofilm formation": 106}, {"smiles": "Cc1ccccc1N1C(=O)c2cc(S(N)(=O)=O)c(Cl)cc2NC1C", "note": "(stereo not drawn) [Metolazone]", "biofilm formation": 11}, {"smiles": "OCCOCCN1CCN(C(c2ccccc2)c2ccc(Cl)cc2)CC1", "note": "(stereo not drawn) [Hydroxyzine dihydrochloride]", "biofilm formation": 67}, {"smiles": "C=CC1=C(C(=O)O)N2C(=O)[C@@H](NC(=O)/C(=N\\OCC(=O)O)c3csc(N)n3)[C@H]2SC1", "note": "[Cefixime]", "biofilm formation": 1}, {"smiles": "C[C@]12CC[C@@H]3c4ccc(O)cc4CC[C@H]3[C@@H]1C[C@@H](O)[C@@H]2O", "note": "[Estriol]", "biofilm formation": 79}, {"smiles": "CN(C)CCCO[C@@H]1[C@H]2OC(C)(C)O[C@H]2O[C@@H]1[C@H](O)CO", "note": "[Amiprilose hydrochloride]", "biofilm formation": 62}, {"smiles": "Cc1noc(NS(=O)(=O)c2ccc(N)cc2)c1C", "note": "[Sulfisoxazole]", "biofilm formation": 27}, {"smiles": "CCc1cccc2c3c([nH]c12)C(CC)(CC(=O)O)OCC3", "note": "(stereo not drawn) [Etodolac]", "biofilm formation": 102}, {"smiles": "CC[N+](CC)(CC)CCC(O)(c1ccccc1)C1CCCCC1", "note": "(stereo not drawn) [Tridihexethyl chloride]", "biofilm formation": 85}, {"smiles": "CC(Oc1c(Cl)cccc1Cl)C1=NCCN1", "note": "(stereo not drawn) [Lofexidine]", "biofilm formation": 92}, {"smiles": "CC1=C(CC(=O)O)c2cc(F)ccc2/C1=C\\c1ccc([S+](C)[O-])cc1", "note": "(stereo not drawn) [Sulindac]", "biofilm formation": 91}, {"smiles": "CO/N=C(\\C(=O)N[C@@H]1C(=O)N2C(C(=O)O)=C(C[N+]3(C)CCCC3)CS[C@H]12)c1csc(N)n1", "note": "[Cefepime hydrochloride]", "biofilm formation": 12}, {"smiles": "CCOC(=O)[C@H](CCc1ccccc1)N[C@@H](C)C(=O)N1CCC[C@H]1C(=O)O", "note": "[Enalapril maleate]", "biofilm formation": 100}, {"smiles": "CC1CS(=O)(=O)CCN1/N=C/c1ccc([N+](=O)[O-])o1", "note": "(stereo not drawn) [Nifurtimox]", "biofilm formation": 71}, {"smiles": "CN1CC2c3ccccc3Oc3ccc(Cl)cc3C2C1", "note": "(stereo not drawn) [Asenapine maleate]", "biofilm formation": 72}, {"smiles": "c1ccc2[nH]c(-c3cscn3)nc2c1", "note": "[Tiabendazole]", "biofilm formation": 66}, {"smiles": "CCCCCCCN(CC)CCCC(O)c1ccc(NS(C)(=O)=O)cc1", "note": "(stereo not drawn) [Ibutilide fumarate]", "biofilm formation": 49}, {"smiles": "COc1ccc(-c2cc(=O)c3c(O)cc(O[C@@H]4O[C@H](CO[C@@H]5O[C@@H](C)[C@H](O)[C@@H](O)[C@H]5O)[C@@H](O)[C@H](O)[C@H]4O)cc3o2)cc1O", "note": "[Diosmin]", "biofilm formation": 79}, {"smiles": "CCOC(=O)C1=C[C@]2(CC)CCCN3CCc4c(n1c1ccccc41)[C@@H]32", "note": "[Vinpocetine]", "biofilm formation": 62}]}]}
